Experimental data from publication doi:10.1101/2024.11.04.621965.
Results are given in words; binding and its absence hold for the method and conditions named. Some binding calls cover weakened binding; strength is not graded here. Sequences can lack the tags named with a protein. Blank lines part the entries; values can stand above or below the binder they belong to.

Key:
Test in all cases: two-hybrid
[1] = target: T1, Arabidopsis MIS12 (Y2H fusion) (Arabidopsis thaliana) (UniProt Q2V0Z5)
T1 sequence: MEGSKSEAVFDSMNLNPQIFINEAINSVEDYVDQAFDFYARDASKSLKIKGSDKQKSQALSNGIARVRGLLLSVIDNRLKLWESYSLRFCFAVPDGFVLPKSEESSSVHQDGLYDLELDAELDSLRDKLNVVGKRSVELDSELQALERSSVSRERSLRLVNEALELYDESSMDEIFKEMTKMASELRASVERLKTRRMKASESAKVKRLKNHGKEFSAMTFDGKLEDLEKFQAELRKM

[2] = target: T2, Arabidopsis NDC80 (Y2H fusion) (Arabidopsis thaliana) (UniProt Q9M1G5)
T2 sequence: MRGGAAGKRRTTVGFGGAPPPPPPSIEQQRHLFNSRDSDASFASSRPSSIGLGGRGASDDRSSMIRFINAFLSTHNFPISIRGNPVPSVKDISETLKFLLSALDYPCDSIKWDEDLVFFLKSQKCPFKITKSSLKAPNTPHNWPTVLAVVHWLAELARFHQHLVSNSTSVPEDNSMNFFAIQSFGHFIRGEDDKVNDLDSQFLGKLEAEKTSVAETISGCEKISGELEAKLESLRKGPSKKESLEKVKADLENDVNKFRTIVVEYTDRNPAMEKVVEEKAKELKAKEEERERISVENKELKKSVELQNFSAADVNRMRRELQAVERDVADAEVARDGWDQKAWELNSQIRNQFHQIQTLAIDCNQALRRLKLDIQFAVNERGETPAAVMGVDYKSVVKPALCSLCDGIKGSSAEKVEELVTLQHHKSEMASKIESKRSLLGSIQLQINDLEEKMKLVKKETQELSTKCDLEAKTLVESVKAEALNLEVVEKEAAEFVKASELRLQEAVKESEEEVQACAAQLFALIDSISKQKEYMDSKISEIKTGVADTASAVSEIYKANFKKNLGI

[3] = target: Arabidopsis MAD1 (Y2H fusion) (Arabidopsis thaliana) (UniProt Q9LTY1)
[4] = target: T3, Arabidopsis MAD2 (Y2H fusion) (Arabidopsis thaliana) (UniProt Q9LU93)
T3 sequence: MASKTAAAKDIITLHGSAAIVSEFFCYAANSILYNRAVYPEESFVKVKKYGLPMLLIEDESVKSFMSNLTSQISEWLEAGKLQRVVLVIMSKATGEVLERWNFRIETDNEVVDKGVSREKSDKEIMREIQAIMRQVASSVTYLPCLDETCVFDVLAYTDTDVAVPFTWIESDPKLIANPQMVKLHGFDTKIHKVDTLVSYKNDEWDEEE

[5] = target: T4, Arabidopsis NUF2 (Y2H fusion) (Arabidopsis thaliana) (UniProt Q8RXJ0)
T4 sequence: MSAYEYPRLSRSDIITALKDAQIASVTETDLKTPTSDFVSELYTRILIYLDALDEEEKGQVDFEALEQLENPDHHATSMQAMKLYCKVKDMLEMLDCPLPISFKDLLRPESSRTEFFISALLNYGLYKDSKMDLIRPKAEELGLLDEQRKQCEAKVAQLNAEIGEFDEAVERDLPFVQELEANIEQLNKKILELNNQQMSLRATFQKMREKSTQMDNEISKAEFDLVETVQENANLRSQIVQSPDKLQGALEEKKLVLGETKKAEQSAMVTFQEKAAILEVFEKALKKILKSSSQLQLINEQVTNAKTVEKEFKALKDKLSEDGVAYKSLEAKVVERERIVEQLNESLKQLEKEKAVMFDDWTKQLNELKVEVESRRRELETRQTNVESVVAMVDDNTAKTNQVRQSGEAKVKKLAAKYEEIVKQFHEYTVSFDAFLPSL

[6] = target: Arabidopsis MPS1 (Y2H fusion) (Arabidopsis thaliana) (UniProt Q84VX4)

B2: Arabidopsis MIS12 (Y2H fusion) (protein, UniProt Q2V0Z5 1-238)
chain: T1 sequence
binding [1]: binds

B3: Arabidopsis MAD1 (Y2H fusion) (protein, UniProt Q9LTY1 1-726)
chain: MILRTPQPKRLRSDAGESPFPTGATGSGNQLIIYEDSPLPAPAPLQTSHDHSADQHLCTYQCRQMVKADVLDALSTAEKQVEESKTKLQTLNANFTEADAERKHFRDKFLYSEQELAAAKAREKMLQEQLLMEINNSQERYTKELQSCHELEVKLQNEMNLRKKAESSAATAEEKAKLLEDKLTQLSGSVDREKKRLNNDIAQLGKEAKLSVARIGADLERMQCRAQNAETESNLLRSQLEHLKLIFDECLQEKTEVDKKLSSFTSEAASSSDNSVLVKHLQEELKRYEAEVREARKLKSRHLDAELLNVNLLEEQSRRERAESELSKFHDLQLSMEKLENELSSWKSLLNDIPGVSCPDDIVMRFSVLQNEVVQSTMKIGEASTRIKQLEETLEAIQLGRQNAVSEAALAKEKSEALKTDVKRIEVMLTLVTEEKEQLKAVVNELRKSNSEGSVSGAADGALIQGFESSLAKKENYIKDLEQDLNQLKDVNNRQRTEIELLNEKLVDEARRNKSLERDSDRLRSEISLLESKLGHGDYSAANTRVLRMVNTLGVENEAKQTIEALQAELQKTKERLQAVEELKSQSGDAGKLVDSHITGKIAQLKEQNATLEKREERYKTVFADRISVFRRACCELFGYKIVMDEHQRPNGIPVTRFTLQSIYAQSDDEKLEFEYESGNTSILNNEYASQGDIAKQIEIFIRKFNSIPAFTANLTMESFNRRTLY
binding [3]: binds
binding [4]: binds
binding [2]: binds
binding [5]: binds

Now from value to binder:

binding [1]: binds
binding [2]: binds
B1: Arabidopsis NDC80 (Y2H fusion) (protein, UniProt Q9M1G5 1-568)
chain: T2 sequence

binding [5]: binds
B4: Arabidopsis NUF2 (Y2H fusion) (protein, UniProt Q8RXJ0 1-440)
chain: T4 sequence

binding [6]: binds
binding [2]: no binding
B5: Arabidopsis MPS1 (Y2H fusion) (enzyme, UniProt Q84VX4 1-777)
chain: MDREDNLPVQPDKPPKSLVRPILNLETTSSSSSSSSSSPELLRHLQAAFKRHRPLSKMQTTSIGPRRSVAPQRQASRNTRLVTAEGQRSQDVVTLSQSLAANTLTQDTTNNLAITSVAGESASITQPTVSEHFNPSDRQMDFGKSAVTSLESNLDVQRKSQSLIGTSQDMEWDATNQAEASHLDACIGSKHQNLPSVDSEVSLKSEYKDSSSLAKIQGQLGEFPNFLNQPRTRCSAVGSSWATTTLIHSSSAPMLNATTHVSRSYVEADSNANPHAVQSQGNLPSCCPSSKVSNILHPNKDATASEMPASTNDPEVRVKETDTSKQQQITTGLEAPVGSSIYGSDGQANARLPEELHTSVSSQPQKSDKHEKVASSKGPSAPRKRNYDPDLFFKVNGKLYQRLGKIGSGGSSEVHKVISSDCTIYALKKIKLKGRDYATAYGFCQEIGYLKKLKGKTNIIQLIDYEVTDKTLLQEVLNGTMSNKDGRVKEDGFIYMVLEYGEIDLAHMLSQKWREIEGSDRTIDENWLRFYWQQILQAVNTIHEERIVHSDLKPANFLLVRGFLKLIDFGIAKAINSDTTNIQRDSQVGTLSYMSPEAFMCNESDENGNTIKCGRPSDIWSLGCILYQMVYGRTPFADYKTFWAKFKVITDPNHEITYNQLSNPWLIDLMKKCLAWDRNQRWRIPELLQHPFLAPPIPHEPQVKTIKLFSLIAESCGSDDDKANSMISQLEQLLSNPAPLPRNDVLDSRDQNQQLLSRVSELCIQLQDRLQGLEGEN
